For the data set, the system named is α2-adrenergic receptor. The experiment in a line: α2-adrenergic receptor binding ([3H] clonidine binding site, calf cerebral cortex). The settings on record: Kiα1/Kiα2. The protocol:
The α1 - and α2 -adrenergic receptor binding was determined for 1-(3-halo-2-pyridinyl)piperazines and a number of other structurally related compounds shown in Table I.
Binding to the α2 -adrenergic receptor was determined by the method of Lyon and Randall, Life Sciences, 26, 1121 (1980) and also is expressed in Table I as Ki representing the affinity of each compound for the [^3 H] clonidine binding site in calf cerebral cortex.

In the case of `CN1CCN(c2ncccc2Br)CC1` [Compound 5], the “Ratio α1/α2” value was 55.

Turning to `Clc1cncc(N2CCNCC2)n1` [Compound 9], the “Ratio α1/α2” value was found to be 19.

For `Clc1cccc(N2CCNCC2)n1` [Compound 6], the “Ratio α1/α2” value came to 26.

Turning to `Brc1cccnc1N1CCNCC1` [Compound 3, 1-(3-bromo-2-pyridinyl)piperazine], the “Ratio α1/α2” value is 135.

Turning to `c1ccc(N2CCNCC2)nc1` [Compound 7], the “Ratio α1/α2” value stood at 65.

Turning to `Ic1cccnc1N1CCNCC1` [Compound 4], the “Ratio α1/α2” value is 38.

Consider `Clc1cccnc1N1CCNCC1` [Compound 2, 1-(3-chloro-2-pyridinyl)piperazine], for which the “Ratio α1/α2” value is listed as 228.

On to `Fc1cccnc1N1CCNCC1` [Compound 1, 1-(3-fluoro-2-pyridinyl)piperazine], for which the “Ratio α1/α2” value was determined as 277.

As to `Clc1nccnc1N1CCNCC1` [Compound 10], the “Ratio α1/α2” value came out at 163.
